Reference: patent US20220273823A1 (Ariel Scientific Innovations Ltd., priority 2019, published 2022)

Experiment: Time-dependent absorption/fluorescence CLB cleavage profiles of XCy-CLB and OCTA-G-XCy-CLB in PB and cell medium
Assay type: in vitro ADME
Conditions: for CLB release in CM faster compared to PB: CM vs PB; for acceleration of drug release by linkage of OCTA to the conjugate (factor): vs XCy-CLB
Procedure: To estimate the rate of the CLB release, the time-dependent absorption and fluorescence spectra of XCy-CLB and OCTA-G-XCy-CLB were measured in PB and CM (see, FIGS. 5A-H). With respect to time, the absorption band at about 600 nm decreases, a new band at about 680 nm increases and a fluorescence band subsequently appears at ˜708 nm (λex=650 nm).
Based of the time-dependent absorption and emission spectra, corresponding drug cleavage profiles were obtained (see, FIGS. 6A-B) and the drug release rates were quantified by half-lives (τ1/2). The cleavage profiles and half-lives obtained spectrophotometrically and spectrofluorometrically almost coincide. […] The release of CLB from OCTA-G-XCy-CLB in CM (τ1/2˜25 min) is […] faster than that in PB τ1/2 ˜2.5 h. Thus, the drug release for both XCy-CLB and OCTA-G-XCy-CLB in CM is much faster compared to PB. The obtained half-lives of the ester bond cleavage in these media were found in good agreement with some reported data. Linkage of OCTA to the conjugate accelerates the drug release by factor of 6 in PB and 1.3 in CM.
Absorption spectra were recorded on a Jasco V-730 UV-Vis spectrophotometer and the fluorescence spectra were measured on Edinburgh FS5 spectrofluorometer. The absorption and fluorescence spectra were measured in 1-cm quartz cells at about 0.5 μM dye concentrations in PB 10 mmol buffer pH 7.4 at 25° C. and cell medium pH 7.4. Excitation wavelength was 650 nm. All the solutions were filtered in PVDF 0.45 μm filter before taking spectrum.

In the case of CC1(C)C(/C=C/C2=C3Oc4cc(OC(=O)CCCc5ccc(N(CCCl)CCCl)cc5)ccc4C=C3CCC2)=[N+](CCCCCC(=O)O)c2ccccc21 [XCy-CLB, (E)-2-(2-(6-((4-(4-(bis(2-chloroethyl)amino)phenyl)butanoyl)oxy)-2,3-dihydro-1H-xanthen-4-yl)vinyl)-1-(5-carboxypentyl)-3,3-dimethyl-3H-indol-1-ium], the “CLB release in CM faster compared to PB” value is reported as “about 12 fold”.

For C[C@@H](O)[C@H](NC(=O)[C@@H]1CSSC[C@H](NC(=O)[C@H](Cc2ccccc2)NC(=O)CCCNC(=O)CCCCC[N+]2=C(/C=C/C3=C4Oc5cc(OC(=O)CCCc6ccc(N(CCCl)CCCl)cc6)ccc5C=C4CCC3)C(C)(C)c3ccccc32)C(=O)N[C@@H](Cc2ccccc2)C(=O)N[C@@H](Cc2c[nH]c3ccccc23)C(=O)N[C@@H](CCCCN)C(=O)N[C@@H]([C@@H](C)O)C(=O)N1)C(N)=O [OCTA-G-XCy-CLB], the “CLB release in CM faster compared to PB” value was 4 fold, the “acceleration of drug release by linkage of OCTA to the conjugate (factor)” value (in CM) was 1.3 and the “acceleration of drug release by linkage of OCTA to the conjugate (factor)” value (in PB) was 6.
